Values from PubChem BioAssay AID1259254 (NCATS, 2017)

Screen: 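Genome-wide screen for genes that prevent DNA re-replication in cancer cells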 (primary screen)
System: human HCT116 colorectal cancer cells
Reagent: single siRNA against human genes
Time to read-out: 3 days
Detection: 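Nuclei stained with Hoechst and imaged; cell-cycle phase assigned by DNA content; G2 share scaled per plate, non-targeting siRNA 0%, GMNN siRNA 100%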
Direction: G2 robust z-score and G2 cells, % of GMNN control: higher = more G2 cells, more excess DNA replication; raw share of cells in G2: higher = larger share of cells with G2 DNA content
Call rule: 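An siRNA counts as active if its G2 robust z-score lies at least 5 MADs above the screen median; here such calls match roughly 38% of GMNN control or more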
This is one part, drawn at random, of about 59,000 reagents tested. About 1,550 of all reagents (2.6%) were called active. 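G2 share is only a proxy for re-replication; each gene was hit by three separate siRNAs, and active genes were retested.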 Raw values are not corrected between plates. The record does not give: the amount of reagent.

| Target gene | PubChem SID | G2 robust z-score | G2 cells, % of GMNN control | raw share of cells in G2 (%) | Outcome |
| --- | --- | --- | --- | --- | --- |
| TEKT1 | SID160751288 | -0.0827 | 2.39 | 6.42 | inactive |
| TEKT1 | SID160751289 | -0.713 | -2.05 | 3.45 | inactive |
| TEKT1 | SID160751290 | -1.18 | -5.31 | 2.82 | inactive |
| CAST | SID160736444 | -0.932 | -3.59 | 3.62 | inactive |
| CAST | SID160736454 | 0.118 | 3.8 | 5.48 | inactive |
| CAST | SID160736466 | -0.35 | 0.502 | 3.72 | inactive |
| CD79A | SID160723694 | 0.69 | 7.82 | 6.59 | inactive |
| CD79A | SID160739780 | -1.1 | -4.78 | 3.06 | inactive |
| CD79A | SID160739791 | -0.91 | -3.43 | 2.83 | inactive |
| OR56A3 | SID160766380 | -0.761 | -2.39 | 2.95 | inactive |
| OR56A3 | SID160766382 | 0.394 | 5.74 | 5.9 | inactive |
| OR56A3 | SID160766383 | 2.71 | 22 | 14.1 | inactive |
| AOX1 | SID160745937 | -0.432 | -0.0707 | 5.57 | inactive |
| AOX1 | SID160746996 | -0.706 | -2 | 4.46 | inactive |
| AOX1 | SID160748041 | -0.13 | 2.05 | 4.34 | inactive |
| DBNDD1 | SID160724535 | 0.0945 | 3.63 | 6.24 | inactive |
| DBNDD1 | SID160724536 | 1.04 | 10.3 | 5.41 | inactive |
| DBNDD1 | SID160748470 | 0.529 | 6.69 | 7.49 | inactive |
| FLJ41170 (retired record) | SID160733385 | 0.338 | 5.35 | 4.94 | inactive |
| FLJ41170 (retired record) | SID160767734 | 1.77 | 15.5 | 9.59 | inactive |
| FLJ41170 (retired record) | SID160767735 | -0.854 | -3.04 | 2.26 | inactive |
| AMHR2 | SID160717150 | -1.08 | -4.63 | 4.08 | inactive |
| AMHR2 | SID160717159 | -1.04 | -4.37 | 3.94 | inactive |
| AMHR2 | SID160717170 | -0.224 | 1.39 | 4.52 | inactive |
| TXNDC16 | SID160746234 | 1.17 | 11.2 | 8.76 | inactive |
| TXNDC16 | SID160746235 | 3.08 | 24.6 | 16.2 | inactive |
| TXNDC16 | SID160746236 | -0.367 | 0.384 | 3.15 | inactive |
| PTOV1 | SID160741446 | -0.0208 | 2.82 | 3.79 | inactive |
| PTOV1 | SID160741447 | -1.21 | -5.58 | 3.39 | inactive |
| PTOV1 | SID160741449 | -0.901 | -3.37 | 2.57 | inactive |
| SCFD1 | SID160735852 | 3.86 | 30.1 | 16.8 | inactive |
| SCFD1 | SID160735853 | 1.47 | 13.3 | 9.63 | inactive |
| SCFD1 | SID160735854 | -0.608 | -1.31 | 2.68 | inactive |
| PPP2R5E | SID160714822 | -0.728 | -2.16 | 4.09 | inactive |
| PPP2R5E | SID160714823 | -0.973 | -3.88 | 3.14 | inactive |
| PPP2R5E | SID160714824 | 0.499 | 6.48 | 5.45 | inactive |
| LCK | SID160776541 | -0.772 | -2.47 | 4.79 | inactive |
| LCK | SID160776542 | -0.516 | -0.666 | 5.19 | inactive |
| LCK | SID160776543 | -0.896 | -3.34 | 2.85 | inactive |
| AMBRA1 | SID160743938 | 0.712 | 7.98 | 7.59 | inactive |
| AMBRA1 | SID160743939 | 0.194 | 4.33 | 5.93 | inactive |
| AMBRA1 | SID160743940 | -0.438 | -0.114 | 3.1 | inactive |

Only “G2 robust z-score”, for 5 of the entries above:
CD79A [SID160739780]	-1.1
CD79A [SID160739791]	-0.91
OR56A3 [SID160766380]	-0.761
OR56A3 [SID160766382]	0.394
OR56A3 [SID160766383]	2.71

Continued:
| Target gene | PubChem SID | G2 robust z-score | G2 cells, % of GMNN control | raw share of cells in G2 (%) | Outcome |
| --- | --- | --- | --- | --- | --- |
| MAML3 | SID160743772 | 5.74 | 43.4 | 18.1 | active |
| MAML3 | SID160743773 | -0.823 | -2.82 | 4.63 | inactive |
| MAML3 | SID160743774 | 1.35 | 12.4 | 7.54 | inactive |
| TATDN1 | SID160751561 | 1.31 | 12.2 | 8.16 | inactive |
| TATDN1 | SID160751562 | 0.379 | 5.64 | 5.13 | inactive |
| TATDN1 | SID160751563 | -0.595 | -1.22 | 2.03 | inactive |
| LINC00847 | SID160734597 | -0.753 | -2.33 | 2.32 | inactive |
| LINC00847 | SID160773045 | -0.719 | -2.09 | 3.27 | inactive |
| LINC00847 | SID160773046 | 0.266 | 4.84 | 4.85 | inactive |
| EXD1 | SID160759881 | 0.777 | 8.44 | 6.63 | inactive |
| EXD1 | SID160759884 | -0.0287 | 2.77 | 3.89 | inactive |
| EXD1 | SID160759885 | 0.0885 | 3.59 | 3.9 | inactive |
| ABCC8 | SID160717552 | 1.62 | 14.3 | 9.46 | inactive |
| ABCC8 | SID160717553 | 0.537 | 6.75 | 7.95 | inactive |
| ABCC8 | SID160731809 | 0.15 | 4.02 | 5.29 | inactive |
| TRPM6 | SID160757899 | 0.673 | 7.71 | 8.09 | inactive |
| TRPM6 | SID160757900 | -0.594 | -1.21 | 4.37 | inactive |
| TRPM6 | SID160757901 | 1 | 10 | 8.29 | inactive |
| LY96 | SID160732773 | 1.11 | 10.8 | 7.06 | inactive |
| LY96 | SID160736745 | -1.06 | -4.51 | 2.72 | inactive |
| LY96 | SID160736746 | 0.268 | 4.85 | 6.04 | inactive |
| TCEA1 | SID160717769 | -0.544 | -0.861 | 3.86 | inactive |
| TCEA1 | SID160717770 | 0.615 | 7.3 | 7.47 | inactive |
| TCEA1 | SID160717771 | 0.0224 | 3.13 | 6.05 | inactive |
| PDP1 | SID160742043 | 2.38 | 19.7 | 11.2 | inactive |
| PDP1 | SID160742044 | 0.0402 | 3.25 | 5.28 | inactive |
| PDP1 | SID160742045 | 2.9 | 23.4 | 10.5 | inactive |
